The conditions of data set [1]: adjusted for the administered dose.
Experiment in data set [2]: not given
This is another data set of the same source.

In the case of `CC(C)c1c(C(=O)Nc2ccccc2)c(-c2ccccc2)c(-c2ccc(F)cc2)n1CC[C@@H](O)C[C@@H](O)CC(=O)O` [atorvastatin], the “decrease in CK levels for each increment of 1 L h^−1 in CL/F” value (linear regression) is 0.20 units. In addition, the “CL/F threshold for risk of myalgia (ROC)” value (sensitivity 83.3%, specificity 73.0%, ROC AUC 0.77) stood at 414.67 L/h. In addition, in data set [1], the “correlation between CL/F and change in LDL cholesterol from baseline (r)” value is given as −0.49; the “correlation between CL/F and change in total cholesterol from baseline (r)” value is −0.44. Further, the “θSLCO1B1 521CC (covariate effect on CL/F)” value in data set [2] (CL/F = θCL × (1 + θSLCO1B1), CC homozygotes, investigation cohort) was −0.041. Besides, the “θSLCO1B1 521TC (covariate effect on CL/F)” value in data set [2] (CL/F = θCL × (1 + θSLCO1B1), heterozygotes, investigation cohort) is −0.402. In addition, in data set [2] (support datasets), the “ωCL support (SD), between-subject variability” value is 0.195.
